From article PMC5996148
Several values for one entry are separate records, joined by “and”; a condition that tells them apart may be missing. Identical values can stand only once. The list shows a part of the results. For some assays here: The exact form of the protein is not confirmed.

Legend:
Test in all cases: protein microarray (ProtoArray v5.0), streptavidin-Alexa Fluor 647
Details in all cases: 3'-biotin; 20 mM Tris (pH 7.5), 5 mM MgCl2, 100 mM KCl, 0.1% Tween-20, A/T-rich and random oligonucleotide blockers; temperature not stated; high values mean tight binding
FNTB = FNTB (UniProt P49356)
FOLR2 (human) = test system: FOLR2 (human)
FOXJ2 (human) = test system: FOXJ2 (human)
FOXP1 (human) = test system: FOXP1 (human)
FOXP4 (human) = test system: FOXP4 (human)
FREQ (human) = test system: FREQ (human)
FRMD3 (human) = test system: FRMD3 (human)
FRMD4A (human) = test system: FRMD4A (human)
FRMD8 (human) = test system: FRMD8 (human)
FRS3 (human) = test system: FRS3 (human)
FSD1L (human) = test system: FSD1L (human)
FST (human) = test system: FST (human)
FTH1 (human) = test system: FTH1 (human)
FTL (human) = test system: FTL (human)
FUCA1 (human) = test system: FUCA1 (human)
FUNDC2 (human) = test system: FUNDC2 (human)
FUT10 = molecular target: T1, FUT10 (UniProt Q6P4F1)
T1 sequence: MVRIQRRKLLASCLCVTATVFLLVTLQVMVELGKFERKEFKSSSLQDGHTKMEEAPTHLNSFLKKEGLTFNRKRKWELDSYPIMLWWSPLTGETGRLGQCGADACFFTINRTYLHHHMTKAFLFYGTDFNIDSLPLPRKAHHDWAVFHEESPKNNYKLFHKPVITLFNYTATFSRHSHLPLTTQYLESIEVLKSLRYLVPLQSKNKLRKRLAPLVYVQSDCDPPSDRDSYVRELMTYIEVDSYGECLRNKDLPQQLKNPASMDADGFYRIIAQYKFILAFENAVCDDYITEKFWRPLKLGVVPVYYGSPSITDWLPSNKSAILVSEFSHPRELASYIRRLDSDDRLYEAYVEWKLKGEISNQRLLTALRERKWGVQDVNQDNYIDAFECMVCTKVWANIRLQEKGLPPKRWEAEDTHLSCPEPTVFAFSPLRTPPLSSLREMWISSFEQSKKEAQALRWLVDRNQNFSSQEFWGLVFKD

FUT2 (human) = test system: FUT2 (human)
FVT1 (human) = test system: FVT1 (human)
FXC1 (human) = test system: FXC1 (human)

Question: What does the source list for “GGGAGGCTGAGGCAGG [G4-1 biotinylated (PQS2)]”?
Answer: binding signal (FNTB): -0.321 z-score; binding signal (FOLR2 (human)): -0.313 z-score; binding signal (FOXJ2 (human)): -0.312 z-score; binding signal (FOXP1 (human)): -0.347 z-score; binding signal (FOXP4 (human)): -0.319 z-score; binding signal (FREQ (human)): -0.352 z-score; binding signal (FRMD3 (human)): -0.3 z-score; binding signal (FRMD4A (human)): -0.279 z-score; binding signal (FRMD8 (human)): -0.335 z-score; binding signal (FRS3 (human)): -0.334 z-score; binding signal (FSD1L (human)): -0.283 z-score; binding signal (FST (human)): -0.338 z-score; binding signal (FTH1 (human)): -0.285 z-score; binding signal (FTL (human)): -0.332 z-score and -0.351 z-score; binding signal (FUCA1 (human)): -0.309 z-score; binding signal (FUNDC2 (human)): -0.331 z-score; binding signal (FUT10): -0.237 z-score; binding signal (FUT2 (human)): -0.318 z-score; binding signal (FVT1 (human)): -0.28 z-score; binding signal (FXC1 (human)): -0.349 z-score
